Results deposited as PubChem BioAssay AID1159584 (Peter MacCallum Cancer Centre, 2016)

Test: 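Genes whose loss is lethal only together with E-cadherin loss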 (primary screen)
System: human MCF10A breast epithelial cells, parental and CDH1-null
Knock-down reagent: siRNA against human genes
Measurement: 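ATP luminescence (CellTiter-Glo) viability per line relative to mean mock wells over all plates, and the ratio of CDH1-null to parental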
Reading the numbers: CDH1-null / parental viability ratio: higher = CDH1-null cells survive relatively better than parental; CDH1-null viability vs mock: higher = more viable CDH1-null cells
Here is an unselected part of about 18,000 reagents tested. Further read-outs or replicates are left out here. Reagent sequences are not shown. Not stated in the record: the amount of reagent, the time to read-out.

GP2 (GeneID 2813) — CDH1-null / parental viability ratio: 1.08; CDH1-null viability vs mock (fraction of mock): 1.12
GBGT1 (GeneID 26301) — CDH1-null / parental viability ratio: 0.91; CDH1-null viability vs mock (fraction of mock): 0.84
OR4N2 (GeneID 390429) — CDH1-null / parental viability ratio: 1.16; CDH1-null viability vs mock (fraction of mock): 0.57
USP6NL (GeneID 9712) — CDH1-null / parental viability ratio: 1.4; CDH1-null viability vs mock (fraction of mock): 0.84
FAM111B (GeneID 374393) — CDH1-null / parental viability ratio: 1.04; CDH1-null viability vs mock (fraction of mock): 0.96
HES7 (GeneID 84667) — CDH1-null / parental viability ratio: 0.8; CDH1-null viability vs mock (fraction of mock): 0.7
IL17RD (GeneID 54756) — CDH1-null / parental viability ratio: 1.02; CDH1-null viability vs mock (fraction of mock): 0.92
NSMCE4A (GeneID 54780) — CDH1-null / parental viability ratio: 0.81; CDH1-null viability vs mock (fraction of mock): 0.57
POT1 (GeneID 25913) — CDH1-null / parental viability ratio: 0.63; CDH1-null viability vs mock (fraction of mock): 0.48
PLPP6 (GeneID 403313) — CDH1-null / parental viability ratio: 1.35; CDH1-null viability vs mock (fraction of mock): 0.96
PTPRD (GeneID 5789) — CDH1-null / parental viability ratio: 1.45; CDH1-null viability vs mock (fraction of mock): 0.94
SHE (GeneID 126669) — CDH1-null / parental viability ratio: 0.86; CDH1-null viability vs mock (fraction of mock): 0.76
GPR21 (GeneID 2844) — CDH1-null / parental viability ratio: 1.44; CDH1-null viability vs mock (fraction of mock): 1.04
VIP (GeneID 7432) — CDH1-null / parental viability ratio: 0.82; CDH1-null viability vs mock (fraction of mock): 0.82
MS4A4A (GeneID 51338) — CDH1-null / parental viability ratio: 0.96; CDH1-null viability vs mock (fraction of mock): 0.54
AKT2 (GeneID 208) — CDH1-null / parental viability ratio: 0.92; CDH1-null viability vs mock (fraction of mock): 0.74
ACY1 (GeneID 95) — CDH1-null / parental viability ratio: 1.21; CDH1-null viability vs mock (fraction of mock): 0.94

3 entries from above, reformatted:
| gene knocked down | CDH1-null / parental viability ratio | CDH1-null viability vs mock (fraction of mock) |
| --- | --- | --- |
| OR4N2 (GeneID 390429) | 1.16 | 0.57 |
| USP6NL (GeneID 9712) | 1.4 | 0.84 |
| FAM111B (GeneID 374393) | 1.04 | 0.96 |

Next records follow:
MME (GeneID 4311) — CDH1-null / parental viability ratio: 1.03; CDH1-null viability vs mock (fraction of mock): 0.97
CD7 (GeneID 924) — CDH1-null / parental viability ratio: 0.83; CDH1-null viability vs mock (fraction of mock): 0.57
GPAM (GeneID 57678) — CDH1-null / parental viability ratio: 0.97; CDH1-null viability vs mock (fraction of mock): 1.02
ZW10 (GeneID 9183) — CDH1-null / parental viability ratio: 0.68; CDH1-null viability vs mock (fraction of mock): 0.56
RAB9B (GeneID 51209) — CDH1-null / parental viability ratio: 0.93; CDH1-null viability vs mock (fraction of mock): 0.84
SCAMP5 (GeneID 192683) — CDH1-null / parental viability ratio: 1.15; CDH1-null viability vs mock (fraction of mock): 0.69
TVP23C (GeneID 201158) — CDH1-null / parental viability ratio: 0.89; CDH1-null viability vs mock (fraction of mock): 0.62
PAXX (GeneID 286257) — CDH1-null / parental viability ratio: 0.61; CDH1-null viability vs mock (fraction of mock): 0.3
PF4 (GeneID 5196) — CDH1-null / parental viability ratio: 0.91; CDH1-null viability vs mock (fraction of mock): 0.84
NTRK2 (GeneID 4915) — CDH1-null / parental viability ratio: 0.92; CDH1-null viability vs mock (fraction of mock): 0.95
ZNF331 (GeneID 55422) — CDH1-null / parental viability ratio: 0.87; CDH1-null viability vs mock (fraction of mock): 0.87
WDR64 (GeneID 128025) — CDH1-null / parental viability ratio: 1.07; CDH1-null viability vs mock (fraction of mock): 0.88
KDM2A (GeneID 22992) — CDH1-null / parental viability ratio: 1.03; CDH1-null viability vs mock (fraction of mock): 0.73
TET1 (GeneID 80312) — CDH1-null / parental viability ratio: 0.94; CDH1-null viability vs mock (fraction of mock): 0.77
MYOC (GeneID 4653) — CDH1-null / parental viability ratio: 0.89; CDH1-null viability vs mock (fraction of mock): 0.78
UGGT1 (GeneID 56886) — CDH1-null / parental viability ratio: 0.88; CDH1-null viability vs mock (fraction of mock): 0.64
CCDC125 (GeneID 202243) — CDH1-null / parental viability ratio: 1.22; CDH1-null viability vs mock (fraction of mock): 0.67
PPP3CB (GeneID 5532) — CDH1-null / parental viability ratio: 1.13; CDH1-null viability vs mock (fraction of mock): 0.96
ZPR1 (GeneID 8882) — CDH1-null / parental viability ratio: 1.19; CDH1-null viability vs mock (fraction of mock): 0.93
SERTAD1 (GeneID 29950) — CDH1-null / parental viability ratio: 0.85; CDH1-null viability vs mock (fraction of mock): 0.55
ETV6 (GeneID 2120) — CDH1-null / parental viability ratio: 0.86; CDH1-null viability vs mock (fraction of mock): 0.96
SLC35E1 (GeneID 79939) — CDH1-null / parental viability ratio: 1.25; CDH1-null viability vs mock (fraction of mock): 0.84
LIAT1 (GeneID 400566) — CDH1-null / parental viability ratio: 1.47; CDH1-null viability vs mock (fraction of mock): 0.88
FCAMR (GeneID 83953) — CDH1-null / parental viability ratio: 1.2; CDH1-null viability vs mock (fraction of mock): 1.1
OR4K15 (GeneID 81127) — CDH1-null / parental viability ratio: 1.08; CDH1-null viability vs mock (fraction of mock): 0.95
STX5 (GeneID 6811) — CDH1-null / parental viability ratio: 0.59; CDH1-null viability vs mock (fraction of mock): 0.52
EID2B (GeneID 126272) — CDH1-null / parental viability ratio: 1.08; CDH1-null viability vs mock (fraction of mock): 0.28
ANAPC5 (GeneID 51433) — CDH1-null / parental viability ratio: 1.01; CDH1-null viability vs mock (fraction of mock): 0.87
